# Results are given in words; binding and its absence hold for the method and conditions named. In cells and extracts the contact can be indirect. These calls come from enrichment with a bait or labelling near it, and not all partners need be listed.
# Amino acid sequences for entries named in this document (tags omitted).
# UniProt Q13263: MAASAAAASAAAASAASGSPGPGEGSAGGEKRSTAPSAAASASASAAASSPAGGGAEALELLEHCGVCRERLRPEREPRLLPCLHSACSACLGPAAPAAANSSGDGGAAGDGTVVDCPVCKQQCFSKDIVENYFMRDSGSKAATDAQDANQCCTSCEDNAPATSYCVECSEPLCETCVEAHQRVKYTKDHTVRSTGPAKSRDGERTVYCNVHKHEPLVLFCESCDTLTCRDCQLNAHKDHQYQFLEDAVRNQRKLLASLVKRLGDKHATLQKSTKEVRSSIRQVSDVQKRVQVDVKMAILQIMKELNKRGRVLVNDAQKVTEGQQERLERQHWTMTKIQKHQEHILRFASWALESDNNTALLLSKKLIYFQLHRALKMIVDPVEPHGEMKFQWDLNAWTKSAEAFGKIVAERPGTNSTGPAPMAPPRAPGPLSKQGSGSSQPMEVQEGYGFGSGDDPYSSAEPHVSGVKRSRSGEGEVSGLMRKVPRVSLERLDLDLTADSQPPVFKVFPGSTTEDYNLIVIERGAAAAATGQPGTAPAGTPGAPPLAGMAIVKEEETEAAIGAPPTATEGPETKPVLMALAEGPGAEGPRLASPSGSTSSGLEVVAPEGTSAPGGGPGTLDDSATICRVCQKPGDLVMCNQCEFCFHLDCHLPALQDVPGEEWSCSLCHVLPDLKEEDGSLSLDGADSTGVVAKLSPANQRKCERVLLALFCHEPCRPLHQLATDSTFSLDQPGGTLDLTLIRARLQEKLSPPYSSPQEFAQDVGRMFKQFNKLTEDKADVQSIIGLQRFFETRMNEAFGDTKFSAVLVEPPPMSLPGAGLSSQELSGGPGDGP
# B1: TRIM33, Q9UPN9 1-1127 (protein)
# chain: MAENKGGGEAESGGGGSGSAPVTAGAAGPAAQEAEPPLTAVLVEEEEEEGGRAGAEGGAAGPDDGGVAAASSGSAQAASSPAASVGTGVAGGAVSTPAPAPASAPAPGPSAGPPPGPPASLLDTCAVCQQSLQSRREAEPKLLPCLHSFCLRCLPEPERQLSVPIPGGSNGDIQQVGVIRCPVCRQECRQIDLVDNYFVKDTSEAPSSSDEKSEQVCTSCEDNASAVGFCVECGEWLCKTCIEAHQRVKFTKDHLIRKKEDVSESVGASGQRPVFCPVHKQEQLKLFCETCDRLTCRDCQLLEHKEHRYQFLEEAFQNQKGAIENLLAKLLEKKNYVHFAATQVQNRIKEVNETNKRVEQEIKVAIFTLINEINKKGKSLLQQLENVTKERQMKLLQQQNDITGLSRQVKHVMNFTNWAIASGSSTALLYSKRLITFQLRHILKARCDPVPAANGAIRFHCDPTFWAKNVVNLGNLVIESKPAPGYTPNVVVGQVPPGTNHISKTPGQINLAQLRLQHMQQQVYAQKHQQLQQMRMQQPPAPVPTTTTTTQQHPRQAAPQMLQQQPPRLISVQTMQRGNMNCGAFQAHQMRLAQNAARIPGIPRHSGPQYSMMQPHLQRQHSNPGHAGPFPVVSVHNTTINPTSPTTATMANANRGPTSPSVTAIELIPSVTNPENLPSLPDIPPIQLEDAGSSSLDNLLSRYISGSHLPPQPTSTMNPSPGPSALSPGSSGLSNSHTPVRPPSTSSTGSRGSCGSSGRTAEKTSLSFKSDQVKVKQEPGTEDEICSFSGGVKQEKTEDGRRSACMLSSPESSLTPPLSTNLHLESELDALASLENHVKIEPADMNESCKQSGLSSLVNGKSPIRSLMHRSARIGGDGNNKDDDPNEDWCAVCQNGGDLLCCEKCPKVFHLTCHVPTLLSFPSGDWICTFCRDIGKPEVEYDCDNLQHSKKGKTAQGLSPVDQRKCERLLLYLYCHELSIEFQEPVPASIPNYYKIIKKPMDLSTVKKKLQKKHSQHYQIPDDFVADVRLIFKNCERFNEMMKVVQVYADTQEINLKADSEVAQAGKAVALYFEDKLTEIYSDRTFAPLPEFEQEEDDGEVTEDSDEDFIQPRRKRLKSDERPVHIK
# Columns and labels:
# [1] = target: T1, TRIM24-SFB (stably expressed in LNCaP cells) (UniProt O15164); assay: affinity purification with mass spectrometry; tandem affinity purification of TRIM24-SFB from stably expressing LNCaP cells: NETN buffer (100 mM NaCl, 20 mM Tris-Cl pH 8.0, 1 mM EDTA, 0.5% NP-40), streptavidin beads 4 h 4 °C, biotin elution, S-protein beads overnight 4 °C, SDS-PAGE bands to mass spectrometry
# T1 sequence: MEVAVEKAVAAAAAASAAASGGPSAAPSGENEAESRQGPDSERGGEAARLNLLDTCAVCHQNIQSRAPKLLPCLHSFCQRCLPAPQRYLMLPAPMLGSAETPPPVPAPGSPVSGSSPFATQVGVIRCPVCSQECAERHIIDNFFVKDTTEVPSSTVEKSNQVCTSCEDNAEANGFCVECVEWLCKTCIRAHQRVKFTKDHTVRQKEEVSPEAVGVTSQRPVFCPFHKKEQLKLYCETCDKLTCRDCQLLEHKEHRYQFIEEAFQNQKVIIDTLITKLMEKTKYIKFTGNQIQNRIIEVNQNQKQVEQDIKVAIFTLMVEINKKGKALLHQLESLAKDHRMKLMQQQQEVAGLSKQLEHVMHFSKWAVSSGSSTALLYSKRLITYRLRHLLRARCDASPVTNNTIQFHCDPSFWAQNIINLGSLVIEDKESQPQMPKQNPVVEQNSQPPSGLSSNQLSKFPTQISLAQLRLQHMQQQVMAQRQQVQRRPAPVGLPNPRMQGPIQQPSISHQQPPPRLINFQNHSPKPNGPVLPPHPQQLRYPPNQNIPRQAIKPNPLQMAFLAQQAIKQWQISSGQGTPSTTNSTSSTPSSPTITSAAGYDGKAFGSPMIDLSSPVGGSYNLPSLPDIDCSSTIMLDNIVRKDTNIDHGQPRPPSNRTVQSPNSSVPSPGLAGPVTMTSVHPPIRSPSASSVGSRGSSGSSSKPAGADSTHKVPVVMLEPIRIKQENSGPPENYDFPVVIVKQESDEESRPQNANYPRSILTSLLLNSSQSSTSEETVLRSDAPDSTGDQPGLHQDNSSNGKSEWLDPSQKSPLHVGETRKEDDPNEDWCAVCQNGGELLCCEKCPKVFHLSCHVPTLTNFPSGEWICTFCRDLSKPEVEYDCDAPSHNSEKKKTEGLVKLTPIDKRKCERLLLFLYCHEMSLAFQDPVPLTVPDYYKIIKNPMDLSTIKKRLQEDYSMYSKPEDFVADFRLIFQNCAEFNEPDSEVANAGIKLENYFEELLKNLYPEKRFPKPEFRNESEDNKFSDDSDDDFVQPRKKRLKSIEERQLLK
# [2] = target: T2, TRIM24-SFB (stably expressed in LNCaP cells), O15164; assay: as above; conditions: remark: other sources report otherwise
# T2 chain: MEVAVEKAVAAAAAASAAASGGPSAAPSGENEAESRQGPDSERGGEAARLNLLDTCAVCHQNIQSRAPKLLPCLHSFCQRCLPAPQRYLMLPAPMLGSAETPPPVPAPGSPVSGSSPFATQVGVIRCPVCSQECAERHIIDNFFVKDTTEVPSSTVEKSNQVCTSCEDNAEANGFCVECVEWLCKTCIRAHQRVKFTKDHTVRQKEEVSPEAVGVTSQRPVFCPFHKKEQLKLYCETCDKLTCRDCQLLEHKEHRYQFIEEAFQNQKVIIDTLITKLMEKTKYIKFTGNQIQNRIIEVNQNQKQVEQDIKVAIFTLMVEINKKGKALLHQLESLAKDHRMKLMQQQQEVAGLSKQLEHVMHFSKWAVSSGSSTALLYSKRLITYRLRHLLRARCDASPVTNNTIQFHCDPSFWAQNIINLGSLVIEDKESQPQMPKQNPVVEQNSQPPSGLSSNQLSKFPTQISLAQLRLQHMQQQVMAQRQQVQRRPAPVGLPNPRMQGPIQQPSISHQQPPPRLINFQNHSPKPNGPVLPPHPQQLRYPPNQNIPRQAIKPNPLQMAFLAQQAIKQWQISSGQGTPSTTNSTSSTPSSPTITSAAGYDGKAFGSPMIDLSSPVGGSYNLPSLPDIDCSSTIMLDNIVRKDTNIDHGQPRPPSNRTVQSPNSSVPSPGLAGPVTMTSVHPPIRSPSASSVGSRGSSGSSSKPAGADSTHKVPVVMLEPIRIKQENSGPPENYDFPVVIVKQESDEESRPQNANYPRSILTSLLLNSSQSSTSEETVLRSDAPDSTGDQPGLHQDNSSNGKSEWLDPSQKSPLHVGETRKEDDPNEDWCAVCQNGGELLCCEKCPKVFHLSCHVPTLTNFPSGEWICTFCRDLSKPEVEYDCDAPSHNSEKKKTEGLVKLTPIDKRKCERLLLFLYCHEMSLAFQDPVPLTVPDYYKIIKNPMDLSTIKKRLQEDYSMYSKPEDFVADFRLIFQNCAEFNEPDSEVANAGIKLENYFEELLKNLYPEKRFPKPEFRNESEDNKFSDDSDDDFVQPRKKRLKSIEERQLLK
Molecule,binding [1],binding [2]
endogenous TRIM28 (LNCaP cells) (from UniProt Q13263 1-835),binds,
B1,,binds
